# Assay results reported in patent publication US20200197536A1.
# Sequences of proteins named here, by UniProt entry; tags and fusion partners are left off. Residues count along the entry.
# UniProt P08581, residues 25-932: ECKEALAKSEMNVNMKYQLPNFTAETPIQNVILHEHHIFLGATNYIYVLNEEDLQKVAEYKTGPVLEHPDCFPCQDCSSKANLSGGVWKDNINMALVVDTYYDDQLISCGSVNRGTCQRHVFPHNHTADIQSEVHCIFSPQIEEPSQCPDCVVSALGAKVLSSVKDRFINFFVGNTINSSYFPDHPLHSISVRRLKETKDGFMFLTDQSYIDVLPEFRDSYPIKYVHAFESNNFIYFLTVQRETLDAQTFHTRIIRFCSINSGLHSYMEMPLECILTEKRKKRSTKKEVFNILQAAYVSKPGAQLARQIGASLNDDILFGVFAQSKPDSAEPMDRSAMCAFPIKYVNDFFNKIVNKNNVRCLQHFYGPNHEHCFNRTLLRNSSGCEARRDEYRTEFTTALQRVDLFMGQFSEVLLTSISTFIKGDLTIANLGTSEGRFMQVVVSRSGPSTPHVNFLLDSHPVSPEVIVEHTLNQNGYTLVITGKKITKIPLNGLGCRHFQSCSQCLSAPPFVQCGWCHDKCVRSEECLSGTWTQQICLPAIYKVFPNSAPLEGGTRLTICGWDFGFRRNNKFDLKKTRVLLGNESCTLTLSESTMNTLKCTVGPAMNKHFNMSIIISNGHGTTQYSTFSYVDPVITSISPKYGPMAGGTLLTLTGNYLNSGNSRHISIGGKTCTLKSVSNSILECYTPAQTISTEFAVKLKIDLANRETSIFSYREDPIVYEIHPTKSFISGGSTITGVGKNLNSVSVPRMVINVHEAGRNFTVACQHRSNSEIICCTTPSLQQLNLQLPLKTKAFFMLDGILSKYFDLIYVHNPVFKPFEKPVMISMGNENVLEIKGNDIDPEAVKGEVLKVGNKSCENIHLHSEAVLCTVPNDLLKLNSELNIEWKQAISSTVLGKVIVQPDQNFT
# These are yes or no findings as the source states them, for the method shown. Some results given as binding are weak or reduced against the parent protein; the word gives no strength. Where a sequence is shown, tags or fusion partners need not be part of it.
# Target: recombinant human Met (rhMet), fused to the Fc domain of human IgG (human) (UniProt P08581)
# Test: phage display affinity selection on rhMet-Fc, five rounds; phage ELISA on rhMet
row,Binder,binding
1,ASVHFPP [ASVHFPP (Ala-Ser-Val-His-Phe-Pro-Pro)],binds
2,TATFWFQ [TATFWFQ (Thr-Ala-Thr-Phe-Trp-Phe-Gln)],binds
3,TSPVALL [TSPVALL (Thr-Ser-Pro-Val-Ala-Leu-Leu)],binds
4,IPLKVHP [IPLKVHP (Ile-Pro-Leu-Lys-Val-His-Pro)],binds
5,WPRLTNM [WPRLTNM (Trp-Pro-Arg-Leu-Thr-Asn-Met)],binds
